Experimental data: PubChem BioAssay AID1508588 (Peter MacCallum Cancer Centre, 2020)
Purpose: 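Knock-downs boosting vemurafenib effects on melanoma cell growth or lactate release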 (primary screen). Cell system: human WM266.4 melanoma cells (BRAF V600 mutant). Knock-down reagent: siRNA pool against human genes, 40 nM. Timing: 96 h from transfection to read-out. Treatment: vemurafenib 300 nM (about IC25), added 48 h after transfection, for 48 h; comparison arm got DMSO vehicle only. Measurement: 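Ratios to non-targeting siRNA for cell gain, counted as DAPI nuclei after minus before drug and averaged over two replicates, and for absorbance-read medium lactate per cell; both binned into fold-change classes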. Scale: cell gain with vemurafenib: higher = more cell gain than with non-targeting siRNA; lactate per cell with vemurafenib: higher = more lactate made per cell. Active means: 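a knock-down counts as enhancing when its fold-change classes with vehicle and with vemurafenib, taken together, show a stronger drug effect on cell gain or lactate per cell; exact class pairs not stated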. Calls: active = enhances vemurafenib effect; inactive = no enhancement seen.
This is a random part of about 18,000 reagents. 790 of them (4.4%) were called active. 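Calls rest on a combination of fold-change classes in drug and vehicle arms, not all shown here.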 A number with no mark means an inactive call. No sequences are given here.

| gene | cell gain with vemurafenib | lactate per cell with vemurafenib |
| --- | --- | --- |
| RGS18 (regulator of G protein signaling 18) | 0.73 | 1 |
| TMEM14C (transmembrane protein 14C) | 0.74 | 0.62 |
| DOK5 (docking protein 5) | 0.56 | 0.56 |
| ACD | 0.52 | 1.38 |
| PCDHGB5 (protocadherin gamma subfamily B, 5) | 0.64 | 0.76 |
| RSPO4 (R-spondin 4) | 0.11 | 0.82 |
| MYRF (myelin regulatory factor) | 0.82 | 1.1 |
| C10orf71 (chromosome 10 open reading frame 71) | 0.52 | 1.19 |
| VTI1A (vesicle transport through interaction with t-SNAREs 1A) | 0.46 | 1.25 |
| FCHSD1 (FCH and double SH3 domains 1) | 0.9 | 0.92 |
| ITGAV (integrin subunit alpha V) | -0.31 | 2.67 |
| NDUFS2 (NADH:ubiquinone oxidoreductase core subunit S2) | 0.44 | 0.67 |
| PRKAR2A | 0.43 | 1.04 |
| TRIM34 (tripartite motif containing 34) | 0.81 | 0.94 |
| STXBP6 (syntaxin binding protein 6) | 0.62 | 1.17 |
| SURF4 (surfeit 4) | 0.29 | 1.59 |
| ANXA3 (annexin A3) | 1.11 | 1 |
| ZSCAN32 (zinc finger and SCAN domain containing 32) | 0.66 | 1.02 |
| PLTP (phospholipid transfer protein) | 1.21 | 0.57 |
| NDUFB6 (NADH:ubiquinone oxidoreductase subunit B6) | 0.3 | 1.54 |
| BRINP1 (BMP/retinoic acid inducible neural specific 1) | 0.65 | 0.98 |
| LIPC (lipase C, hepatic type) | 0.68 | 0.79 |
| SLC1A3 | 0.61 | 0.76 |
| FLVCR2 (FLVCR choline and putative heme transporter 2) | 0.2 | 1 |
| ZPBP2 (zona pellucida binding protein 2) | 0.92 | 0.87 |
| MAGEB18 (MAGE family member B18) | 0.27 | 0.56 |
| DYNLT5 (dynein light chain Tctex-type family member 5) | 0.42 | 0.9 |
| CT45A5 (cancer/testis antigen family 45 member A5) | 0.3 | 1.21 |
| JAKMIP2 (janus kinase and microtubule interacting protein 2) | 0.69 | 1.05 |
| MAPRE2 (microtubule associated protein RP/EB family member 2) | 0.52 | 0.68 |
| USP25 (ubiquitin specific peptidase 25) | 0.75 | 0.76 |
| ZMPSTE24 (zinc metallopeptidase STE24) | 0.88 | 0.56 |
| POLR2G (RNA polymerase II subunit G) | 0.21 | 0.82 |
| CHRNA7 (cholinergic receptor nicotinic alpha 7 subunit) | 0.55 | 1.65 |

2 successive reagents already listed, quoted:
| gene | cell gain with vemurafenib | lactate per cell with vemurafenib |
| --- | --- | --- |
| USP25 (ubiquitin specific peptidase 25) | 0.75 | 0.76 |
| ZMPSTE24 (zinc metallopeptidase STE24) | 0.88 | 0.56 |
